Data as given in PubChem BioAssay AID445 (National Center for Advancing Translational Sciences (NCATS), 2006).
The list shows a part of the results. These are further read-outs of the screen, such as a control signal, another cell line or another target. No call is given for them. The list favours compounds with an active or inconclusive main result. The note in brackets gives the kind of curve behind each potency; many fits are weak.

assay: IkB Signaling; settings: ABC-DLBCL IkBa-CBG/CBR dual luciferase ratio (green luciferase fused to IkBa over red control in OCI-Ly3 lymphoma cells), 4 h; measured here: control luc red channel unless noted
Outline: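 Luminescence ratio of IκBα-fused green versus native red beetle luciferase in OCI-Ly3 cells, 4 h post-doxycycline with compound; red signal alone, scaled from basal (0%) to zero light (-100%), flagged nonspecific or cytotoxic effects.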

| Compound | AC50 |
| --- | --- |
| Cc1ccc(C)c(N2CCN(C(=O)C3CCN(S(=O)(=O)c4cn(C)cn4)CC3)CC2)c1 | 10 µM [falling, full curve] |
| COc1ccc(CNS(=O)(=O)c2cc(C(=O)Nc3cc(Cl)cc(Cl)c3)ccc2F)cc1 | 25.1 µM [falling, partial curve] |
| CCc1ccc(CNC(=O)C(CC)n2ccc3cc(S(=O)(=O)N4CCCCC4)ccc32)cc1 (stereo unspecified) | 3.98 µM [falling, full curve] |
| CCOC(=O)N1CCc2c(sc(NCc3ccc(OCC)cc3)c2C(=O)Nc2ccc(OC)cc2OC)C1 | 0.2 µM [falling, full curve, poor fit] |
| O=C(NC1CCCC1)c1ccc(CSc2nc3ccncc3n2Cc2ccccc2F)cc1 | 39.8 µM [falling, single point] |
| O=C(Nc1ccccc1F)C(Cc1ccccc1)n1cccc1 (stereo unspecified) | 12.6 µM [falling, single point] |
| CCc1ccc(-c2nc(CSCC(=O)N3CCN(c4ccccn4)CC3)c(C)o2)cc1 | 5.01 µM [falling, full curve, poor fit] |
| O=C(Nc1ccc2nc(SCC(=O)N3CCOCC3)sc2c1)c1ccc(F)cc1 | 12.6 µM [falling, partial curve] |
| Cc1ccc(SCc2[nH]nc3c2C(c2ccco2)C(C#N)=C(N)O3)cc1 (stereo unspecified) | 10 µM [falling, partial curve] |
| COc1cc(OC)cc(-c2nc3nc(C)c(CCC(=O)Nc4ccc(Cl)cc4)c(C)n3n2)c1 | 12.6 µM [falling, partial curve] |
| CCOC(=O)Cn1c(=O)oc2cc(S(=O)(=O)Nc3cc(OC)cc(OC)c3)ccc21 | 25.1 µM [falling, partial curve] |
| O=c1[nH]c2ccc(S(=O)(=O)Nc3ccc(-c4nnc5n4CCCCC5)cc3)cc2o1 | 20 µM [falling, partial curve] |
| O=C(NCc1cccs1)c1ccc(N2CCCCC2)nc1 | 12.6 µM [falling, partial curve] |
| C/C=C/Cn1c(SC)nc2c1c(=O)[nH]c(=O)n2C | 251 nM [rising, partial curve, poor fit] [measured here: IkB-luc green channel] |
| Cc1cccc(C(=O)Nc2cccc(C(=O)OCc3cc(=O)n4c5c(sc4n3)CCCC5)c2)c1 | 2 µM [falling, full curve] |
| CCn1c(C)c(C)c2cc(C(=O)NCCc3cc(OC)c(OC)c(OC)c3)ccc21 | 0.2 µM [rising, full curve, poor fit] |
| CCOCCOC(=O)C1=C(C)NC2=C(C(=O)CC(c3cccs3)C2)C1c1ccsc1 (stereo unspecified) | 3.98 µM [falling, partial curve] |
| O=C(CC1N=C2c3ccccc3N=C(SCC(=O)Nc3cccc(Cl)c3)N2C1=O)NCc1cccs1 (stereo unspecified) | 25.1 µM [falling, partial curve] |
| Cc1cc(C)cc(N(CC(=O)N2CCN(c3ccccc3)CC2)S(=O)(=O)c2c(C)noc2C)c1 | 10 µM [falling, partial curve] |
| Oc1c(C(c2ccc(Cl)cc2Cl)N2CCOCC2)sc2nc(-c3ccco3)nn12 (stereo unspecified) | 39.8 µM [falling, single point] |
| O=C(NCc1ccc(F)cc1)c1ccc(CS(=O)(=O)c2ccc(Cl)cc2)o1 | 39.8 µM [falling, single point] |

Compounds shown so far that contain a furan ring, fused or not (3):

| Compound | AC50 |
| --- | --- |
| Cc1ccc(SCc2[nH]nc3c2C(c2ccco2)C(C#N)=C(N)O3)cc1 (stereo unspecified) | 10 µM [falling, partial curve] |
| Oc1c(C(c2ccc(Cl)cc2Cl)N2CCOCC2)sc2nc(-c3ccco3)nn12 (stereo unspecified) | 39.8 µM [falling, single point] |
| O=C(NCc1ccc(F)cc1)c1ccc(CS(=O)(=O)c2ccc(Cl)cc2)o1 | 39.8 µM [falling, single point] |

Later entries:

| Compound | AC50 |
| --- | --- |
| Cc1ccc2c(=O)cc(C(=O)Nc3nnc(CC(C)C)s3)oc2c1C | 0.2 µM [falling, full curve, poor fit] |
| CCOC(=O)c1sc(NC(=O)c2ccc(C)o2)nc1C | 15.8 µM [falling, partial curve] |
| Nc1c(S(=O)(=O)c2cccs2)c2nc3ccccc3nc2n1Cc1cccs1 | 12.6 µM [falling, partial curve] |
| O=C(CN(c1ccc(Cl)c(C(F)(F)F)c1)S(=O)(=O)c1ccccc1)N1CCc2ccccc2C1 | 25.1 µM [falling, partial curve] |
| Cc1ccc(NC(=O)c2sc(-n3nc(C)c(CCC(C)C)c3C)nc2C)cc1C | 0.158 µM [falling, full curve, poor fit] |
| CCc1ccccc1N(C)C(=O)C1CCCN(c2ncnc3onc(-c4ccc(F)cc4)c23)C1 (stereo unspecified) | 20 µM [falling, partial curve] |
| Cc1ccc(OCCn2c(CNc3cccc(C)c3)nc3ccccc32)cc1 | 7.94 µM [falling, full curve] |
| COc1ccccc1CNc1cc(-c2ccccc2)nc2nncn12 | 31.6 µM [falling, partial curve] |
| CCCCOC(=O)c1ccc(NC(=O)c2cc(-c3ccccc3)on2)cc1 | 0.0794 µM [falling, full curve] |
| CC(C)c1ccc2occ(CC(=O)N(Cc3ccc(F)cc3)C3CCS(=O)(=O)C3)c2c1 (stereo unspecified) | 15.8 µM [falling, partial curve] |
| CC(=O)c1ccc(N2CCN(C(=O)Nc3ccc(C(C)C)cc3)CC2)cc1 | 15.8 µM [falling, partial curve] |
| Cc1cc(N)n2ncc(-c3ccccc3)c2n1 | 12.6 µM [falling, partial curve] |
| Cn1c2ccccc2c2cnn(CC(=O)NCCCN3CCN(c4ccccc4F)CC3)c(=O)c21 | 10 µM [falling, partial curve] |
| COc1ccc(NC(=O)c2ccco2)cc1NC(=O)c1c(OC)cccc1OC | 31.6 µM [falling, single point] |
| CC1CCCCN1C(=O)CCS(=O)(=O)c1cc2c(cc1Cl)NC(=O)CO2 (stereo unspecified) | 39.8 µM [falling, single point] |
| Cc1cccc(C(=O)N2CCc3cc(CNS(=O)(=O)c4ccc(F)c(Cl)c4)ccc32)c1 | 3.16 µM [falling, partial curve] |
| CCC(=O)N1CCc2cc(S(=O)(=O)Nc3cc(C)ccc3OC)ccc21 | 12.6 µM [falling, partial curve] |
| Cc1cc(C)cc(NC(=O)c2cc(S(=O)(=O)N3CCc4ccccc43)cn2C)c1 | 15.8 µM [falling, partial curve] |
| COc1ccccc1CNC(=O)c1ccc2c(c1)N(Cc1c(F)cccc1Cl)C(=O)CS2 | 6.31 µM [falling, full curve, poor fit] |
| COc1cccc(NC(=O)Cn2c(=O)n(CCCCC(=O)NCc3ccccc3Cl)c(=O)c3ccccc32)c1 | 10 µM [falling, partial curve] |
| CC(C)NC(=O)C1(O)c2ccccc2NC(=O)N1c1ccc(Cl)c(Cl)c1 (stereo unspecified) | 12.6 µM [falling, partial curve] |

| Compound | AC50 |
| --- | --- |
| O=C(CSc1ncc(S(=O)(=O)c2ccc(Br)cc2)c(=O)[nH]1)Nc1ccc2c(c1)OCCO2 | 15.8 µM [falling, partial curve] |
| CC1CCN(C(=O)CSc2nc3ccccc3nc2Cc2ccccc2)CC1 | 31.6 µM [falling, partial curve] |
| CCOc1ccccc1N1CCN(S(=O)(=O)c2ccc(C3CCCCC3)cc2)CC1 | 25.1 µM [falling, partial curve] |
| Cc1ccc(C(NC(=O)N2CCOCC2)=C(Cl)Cl)cc1F | 31.6 µM [rising, single point] [measured here: IkB-luc green channel] |
| CCOC(=O)c1c(S(=O)(=O)N2CCC(C(=O)Nc3ccc(F)cc3F)CC2)c(C)n(C)c1C | 1 µM [falling, single point] |
| COc1ccc(CNC(=O)Cc2c(C)c3cc4c(C)coc4c(C)c3oc2=O)cc1OC | 31.6 µM [falling, single point] |
| COc1ccc(-n2cc(C(=O)Oc3cc(C)cc(C)c3)c3ccccc3c2=O)cc1 | 0.00631 µM [falling, full curve, poor fit] |
| COc1cccc(NC(=O)Cn2cc(C(=O)c3ccco3)c3ccccc32)c1 | 12.6 µM [falling, partial curve] |
| Cc1cccc(NC(=O)C2CCN(c3cnccn3)CC2)c1 | 39.8 µM [falling, single point] |
| COc1ccc(CC(=O)Nc2ccc3nc(N4CCCCC4)cc(C)c3c2)cc1 | 25.1 µM [falling, single point] |
| Cc1ccc(CNC(=O)c2cc3c(s2)-c2c(C)cccc2OC3)cc1 | 2.51 µM [falling, full curve, poor fit] |
| COc1ccc2c(c1)c1c(c(=O)n(Cc3ccccc3)c(=O)n1CC(=O)NCc1ccccc1)n2C | 39.8 µM [falling, single point] |
| CCOCCCNC(=O)c1ccc(-n2c(-c3ccccc3)cc3c2CCCCC3)cc1 | 12.6 µM [falling, partial curve] |
| Oc1ccc(NCc2ccc(OCc3ccccc3)cc2)cc1 | 39.8 µM [falling, single point] |
| Cc1cc(=O)oc2cc(OCC(=O)Nc3ccc(O)c(C(=O)O)c3)ccc12 | 6.31 µM [falling, full curve, poor fit] |
| CCOc1ccc(NC(=O)CCc2c(C)nc3cc(-c4ccc(Cl)cc4)nn3c2C)cc1 | 0.02 µM [falling, full curve] |
| Cc1ccc(CNC(=O)CS(=O)(=O)Cc2nc(-c3ccccc3C)oc2C)cc1 | 39.8 µM [falling, single point] |
| Cc1cccc(Cn2c(SCc3ccc(C(=O)NC4CCCC4)cc3)nc3ccncc32)c1 | 0.0316 µM [falling, full curve, poor fit] |
| CCN(CC)S(=O)(=O)c1ccc2c(c1)N(CC(=O)NCCCN1CCN(c3cc(Cl)ccc3C)CC1)C(=O)CO2 | 15.8 µM [falling, partial curve] |
